# Library screen at single concentrations

The filed quantity is “Percent Effect” (%).
The controls that fix the scale are not given in the record; negative values are as filed.
This is an unselected part of the compounds tested.
Two or more numbers in one place are separate tests of the same structure; such repeats can differ widely.

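Cell assay of Leishmania donovani living inside macrophages; the read-out is not stated. Tested at 30 µM. The record gives no direction; compounds that gave an IC50 in retests scored well above the rest, so higher reads as stronger inhibition. About 69,000 compounds were tested under these conditions; 1.5% (about 1,000) showed 50% or more at least once.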

CSCC(C)NCc1ccc2[nH]c(C)c(C)c2c1 (stereo not shown) gave 7.41%. For Cc1ccc(CN(C)C(=O)CN2CCCC(Cn3cncn3)C2)o1 (stereo not shown) the result was 21.34%. For Cc1noc(C)c1CN1CCC2(CC1)NC(=O)CC2c1cnn(C)c1 (stereo not shown) the result was -9.046%. Result for O=c1[nH]c2c(-c3ccccn3)nsc2c(=O)n1CC1CCCO1 (stereo not shown) was 25.53%. O=C(C1CCCC1)N1CCOc2cccc(F)c21 gave 27.46%.

O=C(Cc1ccsc1)N1CCC2(CCCN(CC3CCOCC3)C2)C1 (stereo not shown) read -2.983%. CCN(C)CC1CCN(C(=O)Nc2ccc(-c3cc[nH]n3)cc2)C1 (stereo not shown) read 2.553%. For CCN(CC)C1CCN(C(=O)NCc2cccc(NC(C)=O)c2)C1 (stereo not shown) the result was 18.59%. For O=C(CN1CCCC1c1nc(-c2ccccc2)no1)N1CCOCC1 (stereo not shown) the result was 18.87%. For Cc1ccc(Cl)cc1C(=O)N1CCC2(CC1)c1ccccc1[C@@H](N)[C@@H]2O the result was 38.83%.

O=C1COc2cc(S(=O)(=O)NCCC3=CCCCC3)c(Br)cc2N1 read 9.027%. With CC(NCCN1CCN(C(=O)C2CCCC2)CC1)c1nccs1 (stereo not shown) the screen gave -0.9624%. CCCNC(=O)c1ccc2c(c1)C(=O)N(CC(C)C)C2=O gave -4.882%. Result for CN(C)Cc1cnc2n1CCN(C(=O)C1CC=CC1)CC2 was -8.141%. CC1CC2(CCN(C(=O)c3csnn3)CC2)c2ccccc21 (stereo not shown) gave 19.21%.

Cc1ccc(CNC(=O)Cn2c(=O)c3cccnc3n2C)cc1F read 30.04%. Cc1cc2cc(C(=O)N3C[C@H](O)[C@]4(CCCO4)C3)ccc2o1 gave 12.41% & 13.44%. For O=C(Cn1nc(-c2ccc(F)cc2)oc1=O)NCC1CCCO1 (stereo not shown) the result was 17.22%. Result for CN(C)C(=O)c1cc2ncc(C(=O)NC3CCCC3)cc2n1C was -2.053%. O=C(NCCC(=O)N1CCCCCCC1)c1ccoc1 gave 12.46%.

CNC(=O)c1sc2ccccc2c1CC1CCCCN1Cc1ncc[nH]1 (stereo not shown) read 26.95%. Result for CN(Cc1ccsc1)C(=O)c1n[nH]c(N)c1-c1ccccc1 was 5.647%. O=C(c1ccc(Cl)cc1F)N1CCC(Cn2cc(CO)nn2)CC1 gave 8.862%. With CCc1nnc(CN(C)C(=O)C2CC(=O)N(C3CC3)C2)o1 (stereo not shown) the screen gave 19.81%. Result for CN(C)C(=O)CN1CCCC1c1cccc(Cc2ccccc2F)n1 (stereo not shown) was 5.806% & 11.08%.

With COc1ccc(OC)c(CN(Cc2ccco2)Cc2[nH]cnc2C)c1.O=C(O)CC(O)(CC(=O)O)C(=O)O the screen gave 23.51%. CCN1CC(C(=O)N2CC(Oc3ccccc3Cl)C2)CC1=O (stereo not shown) read 29.99%. CCCc1nc(N2CCCN(c3ccncc3)CC2)c2cnn(C)c2n1 gave 15.45%. For Cc1noc(C)c1-c1cncc(C2CCCN2Cc2ccncc2)n1 (stereo not shown) the result was 7.474%. Result for O=C(O)C(F)(F)F.O=C(O)C(F)(F)F.[H][C@@]12CCCO[C@]1([H])[C@H](N(C)Cc1ccco1)CN(Cc1ccc(F)cc1)C2 was 21.62%.

Result for CCn1ccnc1CN1CCC(=O)N(CC2CC2)C(C(C)C)C1 (stereo not shown) was -4.911%. OC(c1ccccn1)C1CCN(Cc2cc3n(n2)CCNC3)CC1 (stereo not shown) read -20.26% & -1.144%. Cc1cnn(CCNc2ncnc3c2CCN(CC2CCOC2)CC3)c1 (stereo not shown) gave -13.82%. For CCCS(=O)(=O)N1CCCC(c2cccc(C(=O)O)c2)C1 (stereo not shown) the result was 9.212%. Result for CC1c2ncc(Cn3cncn3)n2CCN1C(=O)Cc1cccs1 (stereo not shown) was 31.82%.

For CNS(=O)(=O)CC(=O)N(Cc1c(F)cccc1F)C1CCCC1 the result was 15.94%. Result for CN(Cc1nc(-c2ccoc2)no1)C1CCCN(c2cccnn2)C1 (stereo not shown) was 3.706%. For O=C(O)C(F)(F)F.[H][C@@]12CN(CC)C[C@]1(C(=O)N(C)C)CCC21CCN(C(=O)NC(C)C)CC1 the result was -4.131%. For CS(=O)(=O)NCc1cc(-c2cc(F)cc(F)c2)nc(N2CCOCC2)n1 the result was 16.15% & -3.809%. [H][C@@]12CCN(Cc3ccco3)C[C@@]1([H])O[C@@H](c1ccnc(C)n1)C2 read 27.88%.

With Cc1cc(C)n(CC(=O)N2CCCCC2CCN2CCCC2=O)c(=O)n1 (stereo not shown) the screen gave 19.13%. CN(Cc1ccco1)C(=O)C1CSCN1C(=O)C1CCC1 (stereo not shown) read 27.8%. COCC(=O)N[C@H](C(=O)NC(C)c1cc(C)ccc1C)C(C)C (stereo partly shown) gave 20.11%. Result for O=C(NC1CCS(=O)(=O)C1)c1cc(Sc2ncccn2)ccn1 (stereo not shown) was 16.87%. For Cc1cccnc1N1CCN(C(=O)CCc2cn3ccccc3n2)CC1 the result was 15.55%.

With Cc1[nH]ccc1C(=O)NCC1CC(=O)N(CCc2ccccc2)C1 (stereo not shown) the screen gave 4.532%. Result for CC(C)c1nn(C)c(N(C)C)c1CNC1CCC(O)CC1 (stereo not shown) was -7.125%. Cc1csc2c(N3CCNC(C(=O)N4CCCC4)C3)ncnc12 (stereo not shown) read 2.49%.

For reference, 6 entries once more:

Compound,Percent Effect
Cc1noc(C)c1-c1cncc(C2CCCN2Cc2ccncc2)n1 (stereo not shown),7.474
CCCNC(=O)c1ccc2c(c1)C(=O)N(CC(C)C)C2=O,-4.882
O=C(NCCC(=O)N1CCCCCCC1)c1ccoc1,12.46
O=C(CN1CCCC1c1nc(-c2ccccc2)no1)N1CCOCC1 (stereo not shown),18.87
CNC(=O)c1sc2ccccc2c1CC1CCCCN1Cc1ncc[nH]1 (stereo not shown),26.95
Cc1[nH]ccc1C(=O)NCC1CC(=O)N(CCc2ccccc2)C1 (stereo not shown),4.532

From ChEMBL document CHEMBL3988442, “University of Dundee, Small-Polar-MMV Screening Library” (2021).